Results deposited as PubChem BioAssay AID1259308 (NCATS, 2017).

Purpose: 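Candidate targets for better recombinant protein yield in mammalian cells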 (primary screen)
System: human HEK293 embryonic kidney cells stably expressing firefly luciferase (HEK-CMV-Luc2-Hygro)
Reagents: single siRNA against human genes, 0.8 pmol siRNA per well
Duration: 72 h
Measured: 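Luciferase light (ONE-Glo) measured on one replicate plate set and viability (CellTiter-Glo) on the other, scaled to a negative control siRNA, with robust z-scores and luciferase per cell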
Direction: total luciferase, z-score and total luciferase, % of control: higher = more reporter protein produced
Hit rule: 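Active when the median/MAD z-score for overall luciferase is greater than 3; a gene was taken forward for validation with new siRNAs if at least two of its three siRNAs passed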
Meaning of the calls: active = raised luciferase; inactive = no rise
This is a random part of about 59,000 reagents tested. About 1,510 of all reagents (2.6%) were called active. 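Calls use total luciferase alone and ignore viability, so some active siRNAs may act by altering cell number.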 Entries without a mark were called inactive. Reagents against one gene are numbered here. Not all columns of the deposit are shown.

SLC4A10 #1 → total luciferase, z-score = -1.21; total luciferase, % of control = 57.8
SLC4A10 #2 → total luciferase, z-score = -0.242; total luciferase, % of control = 77.1
SLC4A10 #3 → total luciferase, z-score = -0.507; total luciferase, % of control = 71.8
SECISBP2L #1 → total luciferase, z-score = 0.603; total luciferase, % of control = 93.9
SECISBP2L #2 → total luciferase, z-score = 0.56; total luciferase, % of control = 93
SECISBP2L #3 → total luciferase, z-score = 0.178; total luciferase, % of control = 85.4
PLD3 #1 → total luciferase, z-score = -0.956; total luciferase, % of control = 62.9
PLD3 #2 → total luciferase, z-score = -1.23; total luciferase, % of control = 57.3
PLD3 #3 → total luciferase, z-score = 0.174; total luciferase, % of control = 85.3
NCK2 #1 → total luciferase, z-score = -0.775; total luciferase, % of control = 66.5
NCK2 #2 → total luciferase, z-score = -1.73; total luciferase, % of control = 47.4
NCK2 #3 → total luciferase, z-score = 1.2; total luciferase, % of control = 106
SPATA24 #1 → total luciferase, z-score = -0.33; total luciferase, % of control = 75.3
SPATA24 #2 → total luciferase, z-score = 0.524; total luciferase, % of control = 92.3
SPATA24 #3 → total luciferase, z-score = 0.394; total luciferase, % of control = 89.7
TFAP2C #1 → total luciferase, z-score = 3.51 (active); total luciferase, % of control = 152
TFAP2C #2 → total luciferase, z-score = 0.239; total luciferase, % of control = 86.6
TFAP2C #3 → total luciferase, z-score = 0.3; total luciferase, % of control = 87.8
USP43 #1 → total luciferase, z-score = -0.543; total luciferase, % of control = 71.1
USP43 #2 → total luciferase, z-score = 1.73; total luciferase, % of control = 116
USP43 #3 → total luciferase, z-score = 0.952; total luciferase, % of control = 101
SNX1 #1 → total luciferase, z-score = -1.96; total luciferase, % of control = 42.9
SNX1 #2 → total luciferase, z-score = -0.157; total luciferase, % of control = 78.8
SNX1 #3 → total luciferase, z-score = -1.38; total luciferase, % of control = 54.4
TIGD4 #1 → total luciferase, z-score = 2.01; total luciferase, % of control = 122
TIGD4 #2 → total luciferase, z-score = 1.09; total luciferase, % of control = 104
TIGD4 #3 → total luciferase, z-score = -0.505; total luciferase, % of control = 71.8
LEF1 #1 → total luciferase, z-score = 0.561; total luciferase, % of control = 93.1
LEF1 #2 → total luciferase, z-score = -0.148; total luciferase, % of control = 78.9
LEF1 #3 → total luciferase, z-score = 0.793; total luciferase, % of control = 97.7
PITPNM3 #1 → total luciferase, z-score = -0.0839; total luciferase, % of control = 80.2
PITPNM3 #2 → total luciferase, z-score = 0.481; total luciferase, % of control = 91.5
PITPNM3 #3 → total luciferase, z-score = 0.497; total luciferase, % of control = 91.8
COPS2 #1 → total luciferase, z-score = 0.379; total luciferase, % of control = 89.4
COPS2 #2 → total luciferase, z-score = -0.629; total luciferase, % of control = 69.4
COPS2 #3 → total luciferase, z-score = -1.07; total luciferase, % of control = 60.6
HSPBP1 #1 → total luciferase, z-score = 0.236; total luciferase, % of control = 86.6
HSPBP1 #2 → total luciferase, z-score = 0.613; total luciferase, % of control = 94.1
HSPBP1 #3 → total luciferase, z-score = 0.0869; total luciferase, % of control = 83.6
GOT1 #1 → total luciferase, z-score = 0.831; total luciferase, % of control = 98.4
GOT1 #2 → total luciferase, z-score = 1.37; total luciferase, % of control = 109
GOT1 #3 → total luciferase, z-score = -0.758; total luciferase, % of control = 66.8

Laid out differently: results already given
target,siRNA no.,"total luciferase, z-score","total luciferase, % of control"
COPS2,2,-0.629,69.4
COPS2,3,-1.07,60.6
HSPBP1,1,0.236,86.6
HSPBP1,2,0.613,94.1
HSPBP1,3,0.0869,83.6
